Measurements from article PMC2568806.
The exact form of at least one protein or probe is not confirmed. Weaker means in comparison with the reference protein, sequence or condition of that experiment.

Sequences of proteins named here, by UniProt entry; tags and fusion partners are left off.
UniProt P03372, whole entry: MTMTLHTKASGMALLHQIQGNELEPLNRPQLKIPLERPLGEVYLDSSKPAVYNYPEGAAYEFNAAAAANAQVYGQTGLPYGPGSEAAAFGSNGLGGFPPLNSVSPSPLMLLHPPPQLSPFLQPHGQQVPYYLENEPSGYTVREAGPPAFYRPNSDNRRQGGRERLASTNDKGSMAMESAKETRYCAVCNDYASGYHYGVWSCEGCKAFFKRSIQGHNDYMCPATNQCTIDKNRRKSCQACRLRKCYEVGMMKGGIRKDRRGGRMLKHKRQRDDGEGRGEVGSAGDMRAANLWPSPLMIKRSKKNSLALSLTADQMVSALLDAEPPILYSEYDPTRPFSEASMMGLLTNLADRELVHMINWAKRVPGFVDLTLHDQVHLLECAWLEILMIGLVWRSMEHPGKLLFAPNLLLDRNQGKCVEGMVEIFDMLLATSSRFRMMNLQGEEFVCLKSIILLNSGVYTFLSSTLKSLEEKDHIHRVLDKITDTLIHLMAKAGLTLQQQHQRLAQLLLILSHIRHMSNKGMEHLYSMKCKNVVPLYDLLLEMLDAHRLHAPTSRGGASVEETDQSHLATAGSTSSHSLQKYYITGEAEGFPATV

Molecular target: recombinant estrogen receptor alpha (rERα) (UniProt P03372)
Assay: competition with a labelled probe
Conditions: HESC nuclear extract, did not efficiently compete for labeled PCNA-ERE1; 25 mM Tris-HCl pH 8.0, 50 mM KCl, 6.25 mM MgCl2, 10% glycerol, 0.5 mM DTT; 5 µg HESC nuclear extract + 170 nM rERα; 5% acrylamide gel in TBE; temperature not stated; commercial protein; label: unlabeled competitor

“GGGAGTTTGTTTTTTGCCATATTTAACATTG (double strand) [PCNA-ERE1mut]”: binds more weakly.
